Some of the results follow.
What was measured:
Assay in all cases: log2 fold change, soluble protein after heating vs DMSO (PISA); higher = thermal stabilisation; K562 lysate, 10 uM; active = over 0.2 and 3.5 SD of the protein, either way, in both replicates (recomputed)
erlotinib = compound: C#Cc1cccc(Nc2ncnc3cc(OCCOC)c(OCCOC)cc23)c1 [erlotinib]
In short: (§1)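 Thermal stability, expressed as log-two fold change relative to solvent controls, is given from duplicates. Crude K562 extract in PBS pH 7.4 with 1 mM MgCl2, at 1 mg/mL protein, was treated with 10 μM compound for 30 min and heated in aliquots for 3 min across 48°C-58°C. After pooling, adjustment to 0.5% NP-40 at 4°C and centrifugation at 21,000xg for 90 min, supernatant protein was measured by TMTpro 16plex LC-MS/MS with channel sums equalised.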

Chains of the proteins cited; added tags and fusions are not shown. Lines headed by an entry give the natural chain unless they say otherwise; changes in a name come on top.
UniProt O00165, whole entry, looked up: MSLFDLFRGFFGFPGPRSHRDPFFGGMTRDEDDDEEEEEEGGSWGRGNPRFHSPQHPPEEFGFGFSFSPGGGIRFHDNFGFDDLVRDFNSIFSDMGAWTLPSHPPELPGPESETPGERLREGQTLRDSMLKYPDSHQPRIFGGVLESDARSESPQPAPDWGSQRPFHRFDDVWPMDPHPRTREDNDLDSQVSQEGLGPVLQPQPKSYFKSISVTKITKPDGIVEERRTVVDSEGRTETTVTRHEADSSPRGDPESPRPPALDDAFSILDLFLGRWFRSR
UniProt Q16836: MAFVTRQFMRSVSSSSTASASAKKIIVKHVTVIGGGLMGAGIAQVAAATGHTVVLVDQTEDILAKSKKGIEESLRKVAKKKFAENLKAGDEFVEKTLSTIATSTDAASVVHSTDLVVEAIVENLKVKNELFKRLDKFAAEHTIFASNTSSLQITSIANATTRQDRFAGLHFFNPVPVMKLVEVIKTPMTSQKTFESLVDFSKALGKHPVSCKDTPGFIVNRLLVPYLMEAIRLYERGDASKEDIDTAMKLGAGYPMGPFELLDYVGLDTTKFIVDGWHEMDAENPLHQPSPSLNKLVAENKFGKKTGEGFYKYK
UniProt P13984, whole entry, looked up: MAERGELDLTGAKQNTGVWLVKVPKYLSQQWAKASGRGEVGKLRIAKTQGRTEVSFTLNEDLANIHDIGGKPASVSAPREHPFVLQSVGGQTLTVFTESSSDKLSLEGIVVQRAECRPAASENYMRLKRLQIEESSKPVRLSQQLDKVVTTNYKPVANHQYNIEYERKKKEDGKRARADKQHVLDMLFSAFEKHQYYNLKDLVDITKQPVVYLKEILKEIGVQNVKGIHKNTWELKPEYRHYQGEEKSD
UniProt Q9Y450, whole entry, looked up: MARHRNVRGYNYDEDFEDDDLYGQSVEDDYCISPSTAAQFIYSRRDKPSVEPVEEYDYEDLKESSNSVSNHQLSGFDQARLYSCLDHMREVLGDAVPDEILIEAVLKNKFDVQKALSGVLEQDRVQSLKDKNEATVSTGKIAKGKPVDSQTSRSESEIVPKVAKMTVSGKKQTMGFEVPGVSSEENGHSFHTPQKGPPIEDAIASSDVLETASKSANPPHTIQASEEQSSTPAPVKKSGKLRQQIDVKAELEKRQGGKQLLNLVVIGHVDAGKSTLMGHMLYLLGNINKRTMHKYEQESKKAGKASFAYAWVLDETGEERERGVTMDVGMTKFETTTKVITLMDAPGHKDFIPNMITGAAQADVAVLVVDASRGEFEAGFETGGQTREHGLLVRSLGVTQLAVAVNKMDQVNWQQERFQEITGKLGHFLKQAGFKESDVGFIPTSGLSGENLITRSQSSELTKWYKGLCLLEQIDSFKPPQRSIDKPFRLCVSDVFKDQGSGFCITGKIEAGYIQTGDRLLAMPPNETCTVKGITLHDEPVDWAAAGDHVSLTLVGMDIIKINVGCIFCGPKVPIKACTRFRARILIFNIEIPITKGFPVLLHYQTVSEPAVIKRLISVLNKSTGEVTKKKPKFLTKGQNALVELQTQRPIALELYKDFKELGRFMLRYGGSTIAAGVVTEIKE
UniProt Q969S8: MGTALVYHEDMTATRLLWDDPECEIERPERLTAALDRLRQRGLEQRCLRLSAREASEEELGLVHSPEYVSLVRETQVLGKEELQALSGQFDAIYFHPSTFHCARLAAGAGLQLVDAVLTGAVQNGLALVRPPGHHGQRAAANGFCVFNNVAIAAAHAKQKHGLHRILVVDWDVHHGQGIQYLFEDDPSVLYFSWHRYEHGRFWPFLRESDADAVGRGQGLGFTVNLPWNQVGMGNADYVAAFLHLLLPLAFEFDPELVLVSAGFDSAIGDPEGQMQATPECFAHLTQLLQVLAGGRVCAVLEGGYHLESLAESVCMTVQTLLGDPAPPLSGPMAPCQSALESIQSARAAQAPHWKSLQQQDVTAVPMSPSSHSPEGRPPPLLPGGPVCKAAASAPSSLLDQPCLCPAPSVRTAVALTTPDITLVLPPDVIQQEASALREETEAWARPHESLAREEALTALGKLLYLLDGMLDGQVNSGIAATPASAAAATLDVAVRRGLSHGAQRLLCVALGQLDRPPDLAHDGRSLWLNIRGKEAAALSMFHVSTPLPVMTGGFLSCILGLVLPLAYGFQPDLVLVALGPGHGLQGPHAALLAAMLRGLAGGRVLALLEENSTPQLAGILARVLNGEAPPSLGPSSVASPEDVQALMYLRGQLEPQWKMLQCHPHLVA
UniProt Q96CS2: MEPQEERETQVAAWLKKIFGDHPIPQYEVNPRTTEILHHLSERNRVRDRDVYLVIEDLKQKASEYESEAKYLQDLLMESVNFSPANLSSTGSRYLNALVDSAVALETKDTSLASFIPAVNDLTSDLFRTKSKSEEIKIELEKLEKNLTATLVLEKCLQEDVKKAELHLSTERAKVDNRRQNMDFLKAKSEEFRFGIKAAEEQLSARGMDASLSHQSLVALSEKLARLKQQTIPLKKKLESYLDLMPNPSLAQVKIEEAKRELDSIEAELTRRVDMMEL
UniProt O75367, whole entry, looked up: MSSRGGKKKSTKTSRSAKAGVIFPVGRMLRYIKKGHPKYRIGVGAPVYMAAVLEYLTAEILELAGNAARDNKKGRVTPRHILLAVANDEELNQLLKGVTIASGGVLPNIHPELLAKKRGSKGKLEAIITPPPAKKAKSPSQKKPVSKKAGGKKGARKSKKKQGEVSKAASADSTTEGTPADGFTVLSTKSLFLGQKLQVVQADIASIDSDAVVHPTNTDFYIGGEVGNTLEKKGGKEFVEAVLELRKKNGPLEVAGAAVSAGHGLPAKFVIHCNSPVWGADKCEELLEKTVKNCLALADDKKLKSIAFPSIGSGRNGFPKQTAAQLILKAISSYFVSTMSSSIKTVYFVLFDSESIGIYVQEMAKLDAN
UniProt Q16774: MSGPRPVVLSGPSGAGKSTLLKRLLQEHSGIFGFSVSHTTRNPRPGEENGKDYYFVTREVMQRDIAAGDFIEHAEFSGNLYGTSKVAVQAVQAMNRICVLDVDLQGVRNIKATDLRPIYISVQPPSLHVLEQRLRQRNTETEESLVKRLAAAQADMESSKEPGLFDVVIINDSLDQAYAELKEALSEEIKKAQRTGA
UniProt Q9HAV7: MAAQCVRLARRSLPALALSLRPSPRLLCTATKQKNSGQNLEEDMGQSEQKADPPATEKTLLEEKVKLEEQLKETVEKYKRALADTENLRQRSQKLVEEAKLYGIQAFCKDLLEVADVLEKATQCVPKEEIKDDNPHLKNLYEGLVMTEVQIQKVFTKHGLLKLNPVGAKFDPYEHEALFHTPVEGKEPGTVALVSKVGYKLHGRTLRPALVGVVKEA
UniProt Q969Y2: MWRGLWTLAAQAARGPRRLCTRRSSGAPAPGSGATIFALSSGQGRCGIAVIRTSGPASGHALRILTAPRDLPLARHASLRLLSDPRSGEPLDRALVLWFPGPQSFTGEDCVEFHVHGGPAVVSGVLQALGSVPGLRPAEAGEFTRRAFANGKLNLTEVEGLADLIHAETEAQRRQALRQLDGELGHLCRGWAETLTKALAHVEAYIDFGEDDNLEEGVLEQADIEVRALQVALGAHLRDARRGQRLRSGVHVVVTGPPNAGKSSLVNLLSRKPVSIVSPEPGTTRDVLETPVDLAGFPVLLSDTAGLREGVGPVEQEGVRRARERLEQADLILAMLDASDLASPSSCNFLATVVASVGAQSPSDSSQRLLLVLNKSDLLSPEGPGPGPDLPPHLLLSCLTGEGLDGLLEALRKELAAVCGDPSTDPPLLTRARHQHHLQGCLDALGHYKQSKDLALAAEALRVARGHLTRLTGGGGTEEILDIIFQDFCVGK
UniProt Q9Y5Q8: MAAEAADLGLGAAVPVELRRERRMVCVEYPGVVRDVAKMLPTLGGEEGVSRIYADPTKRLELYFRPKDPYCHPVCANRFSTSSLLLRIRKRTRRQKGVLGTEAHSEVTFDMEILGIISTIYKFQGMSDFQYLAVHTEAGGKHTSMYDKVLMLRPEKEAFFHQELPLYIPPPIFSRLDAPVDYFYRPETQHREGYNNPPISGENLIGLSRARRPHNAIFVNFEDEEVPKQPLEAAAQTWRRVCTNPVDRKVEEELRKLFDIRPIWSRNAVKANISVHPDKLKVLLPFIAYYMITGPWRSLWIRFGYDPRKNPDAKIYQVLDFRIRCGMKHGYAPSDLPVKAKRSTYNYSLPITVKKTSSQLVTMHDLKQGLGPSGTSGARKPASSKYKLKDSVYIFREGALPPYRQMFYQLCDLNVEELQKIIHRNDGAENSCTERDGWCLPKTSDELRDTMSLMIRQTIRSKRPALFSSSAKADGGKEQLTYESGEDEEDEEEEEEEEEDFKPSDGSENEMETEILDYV
UniProt O75791: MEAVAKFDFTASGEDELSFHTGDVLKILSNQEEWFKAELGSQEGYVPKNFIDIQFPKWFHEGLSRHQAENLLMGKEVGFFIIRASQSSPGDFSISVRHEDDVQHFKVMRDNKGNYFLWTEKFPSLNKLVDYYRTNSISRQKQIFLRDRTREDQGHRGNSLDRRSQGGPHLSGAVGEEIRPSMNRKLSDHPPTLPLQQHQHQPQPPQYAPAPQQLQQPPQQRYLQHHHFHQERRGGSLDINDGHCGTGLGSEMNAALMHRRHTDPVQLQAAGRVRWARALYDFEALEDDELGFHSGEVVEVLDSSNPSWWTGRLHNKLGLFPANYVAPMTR
UniProt P43250, whole entry, looked up: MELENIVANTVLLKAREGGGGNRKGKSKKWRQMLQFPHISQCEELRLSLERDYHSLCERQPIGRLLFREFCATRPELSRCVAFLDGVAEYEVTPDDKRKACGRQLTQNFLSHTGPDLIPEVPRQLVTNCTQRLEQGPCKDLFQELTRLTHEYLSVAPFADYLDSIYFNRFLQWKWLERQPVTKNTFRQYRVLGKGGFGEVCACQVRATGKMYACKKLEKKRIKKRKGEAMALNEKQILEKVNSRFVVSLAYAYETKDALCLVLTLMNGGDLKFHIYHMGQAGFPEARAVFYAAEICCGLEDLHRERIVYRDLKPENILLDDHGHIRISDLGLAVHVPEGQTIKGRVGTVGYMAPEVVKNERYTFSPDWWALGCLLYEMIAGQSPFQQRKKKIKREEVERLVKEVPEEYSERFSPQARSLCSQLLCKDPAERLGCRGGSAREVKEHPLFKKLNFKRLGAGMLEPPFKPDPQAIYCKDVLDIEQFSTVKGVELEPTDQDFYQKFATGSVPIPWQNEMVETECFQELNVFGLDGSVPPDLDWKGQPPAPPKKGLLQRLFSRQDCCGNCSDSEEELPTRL
UniProt Q9UBN7: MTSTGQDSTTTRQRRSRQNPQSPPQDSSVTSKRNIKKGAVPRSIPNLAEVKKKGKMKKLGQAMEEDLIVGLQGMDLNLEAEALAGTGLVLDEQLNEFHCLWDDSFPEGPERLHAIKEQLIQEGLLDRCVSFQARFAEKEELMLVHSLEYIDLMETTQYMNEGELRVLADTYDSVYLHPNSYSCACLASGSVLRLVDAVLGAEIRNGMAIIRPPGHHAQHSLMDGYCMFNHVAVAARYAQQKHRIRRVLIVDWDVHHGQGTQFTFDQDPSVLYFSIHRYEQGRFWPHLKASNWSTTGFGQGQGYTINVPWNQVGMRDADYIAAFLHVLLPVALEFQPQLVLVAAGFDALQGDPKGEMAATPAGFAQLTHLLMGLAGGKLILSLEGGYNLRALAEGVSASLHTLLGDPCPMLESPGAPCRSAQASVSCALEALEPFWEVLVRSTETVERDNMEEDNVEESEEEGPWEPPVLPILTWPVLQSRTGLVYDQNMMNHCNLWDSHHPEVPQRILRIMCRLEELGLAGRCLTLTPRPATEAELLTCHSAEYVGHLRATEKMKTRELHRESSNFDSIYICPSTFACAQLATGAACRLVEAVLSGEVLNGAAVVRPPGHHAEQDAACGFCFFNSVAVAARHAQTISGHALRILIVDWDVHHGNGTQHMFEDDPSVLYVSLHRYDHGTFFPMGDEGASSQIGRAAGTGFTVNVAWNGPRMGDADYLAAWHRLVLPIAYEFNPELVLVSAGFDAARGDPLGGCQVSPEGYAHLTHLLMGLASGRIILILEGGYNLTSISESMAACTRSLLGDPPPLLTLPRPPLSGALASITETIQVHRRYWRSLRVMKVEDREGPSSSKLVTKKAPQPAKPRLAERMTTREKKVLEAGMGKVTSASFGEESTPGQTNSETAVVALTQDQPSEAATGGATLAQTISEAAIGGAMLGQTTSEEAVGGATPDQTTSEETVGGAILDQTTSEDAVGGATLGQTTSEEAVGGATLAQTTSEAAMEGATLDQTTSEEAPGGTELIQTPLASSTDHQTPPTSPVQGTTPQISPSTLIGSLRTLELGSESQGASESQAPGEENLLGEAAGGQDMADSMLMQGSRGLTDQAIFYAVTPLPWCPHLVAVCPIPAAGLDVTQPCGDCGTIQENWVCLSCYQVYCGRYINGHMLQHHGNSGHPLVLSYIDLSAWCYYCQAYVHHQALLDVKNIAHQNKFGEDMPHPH

[1] = compound: C/C(=N\NC(=O)C1=CC(=CC=C1)S(=O)(=O)N2CCOCC2)/C3=C(C=CC(=C3)Cl)O
In short: as §1

[2] = compound: C1=CC(=CC=C1C2=NC3=C(N2)C=C(C=C3)C(=O)N)OC4=CC=C(C=C4)Cl
In short: as §1

[3] = compound: C1=CC2=C(C=CC(=C2)/C=C\3/C(=O)NC(=NCC4=CC=CS4)S3)N=C1
In short: as §1

[4] = compound: C1=CC2=NC=CN=C2C=C1/C=C/3\C(=O)NC(=O)S3
In short: as §1

[5] = compound: C1=CC=C(C=C1)C2=NC(=C(N2)C3=CC=NC=C3)C4=CC(=C(C=C4)Cl)O
In short: as §1

[6] = compound: C1=CC=C2C(=C1)C3=NNC4=CC=CC(=C43)C2=O
In short: as §1

[7] = compound: C1CCN(C1)C(=O)NC2=CC=CC(=C2)NC3=NC=C(C(=N3)NCCC4=CN=CN4)Br
In short: as §1

[8] = compound: C1CN(CCC1(CC2=CC=C(C=C2)Cl)N)C3=NC=NC4=C3C=CN4
In short: as §1

IRAK-1-4 Inhibitor I = compound: C1COCCN1CCN2C3=CC=CC=C3N=C2NC(=O)C4=CC(=CC=C4)[N+](=O)[O-] [IRAK-1-4 Inhibitor I]
In short: as §1

ibrutinib = compound: C=CC(=O)N1CCC[C@@H](n2nc(-c3ccc(Oc4ccccc4)cc3)c3c(N)ncnc32)C1 [ibrutinib]
In short: as §1

[9] = compound: CC(=O)c1cnc2ccc(-c3cc(Cl)c(O)c(Cl)c3)nc2c1N[C@H]1CC[C@H](CN(C)C)CC1
In short: as §1

ralimetinib = compound: CC(C)(C)Cn1c(N)nc2ccc(-c3[nH]c(C(C)(C)C)nc3-c3ccc(F)cc3)nc21 [ralimetinib]
In short: as §1

[10] = compound: CC(C)(O)CC(=O)NCCn1ccc2ncnc(Nc3ccc(Oc4cccc(C(F)(F)F)c4)c(Cl)c3)c21
In short: as §1

[11] = compound: CC(C)C1=C2N=C(C=C(N2N=C1)NCC3=CC=CC=C3)NCCCCCCN
In short: as §1

[12] = compound: CC1=C(C(CC(=O)N1)C2=CC=C(C=C2)C(F)(F)F)C(=O)NC3=C(C=C4C(=C3)C=NN4)F
In short: as §1

[13] = compound: CC1=C(C2=C(C=C1)C(=O)C3=CC=CC=C3N2CCCN)C
In short: as §1

[14] = compound: CC1=C(C=C(C=C1)NC(=O)C2=CC(=CC=C2)C(C)(C)C#N)NC3=CC4=C(C=C3)N=CN(C4=O)C
In short: as §1

[15] = compound: CC1=C(C=C(C=C1)NC(=O)C2=CC(=CC=C2)N(C)C)NC(=O)C3=CC=C(C=C3)O
In short: as §1

[16] = compound: CC1=CC=C(C=C1)SC2=C3C=C(SC3=CN=C2)C(=O)N
In short: as §1

Measured: log2 fold change

HAX1 (UniProt O00165)
inactive: erlotinib 0.003 | [1] 0.024 | [2] -0.078 | [3] 0.013 | [4] -0.01 | [5] 0.015 | [6] -0.034 | [7] 0.056 | [8] -0.029 | IRAK-1-4 Inhibitor I 0.022 | ibrutinib 0.048 | [9] 0.042 | ralimetinib 0 | [10] -0.016 | [11] 0.056 | [12] 0.002 | [13] -0.054 | [14] -0.011 | [15] 0.017 | [16] 0.015

HADH isoform 2 (UniProt Q16836)
inactive: erlotinib -0.052 | [1] 0.065 | [2] 0.023 | [3] 0.08 | [4] -0.03 | [5] 0.003 | [6] -0.015 | [7] -0.015 | [8] -0.028 | IRAK-1-4 Inhibitor I 0.008 | ibrutinib -0.004 | [9] 0.02 | ralimetinib -0.023 | [10] -0.011 | [11] -0.036 | [12] 0.013 | [13] -0.045 | [14] -0.039 | [15] 0.028 | [16] 0.004

GTF2F2 (UniProt P13984)
inactive: erlotinib -0.011 | [1] 0.037 | [2] 0.028 | [3] 0.008 | [4] -0.042 | [5] 0.009 | [6] 0.015 | [7] 0.011 | [8] -0.004 | IRAK-1-4 Inhibitor I -0.008 | ibrutinib -0.007 | [9] -0.013 | ralimetinib -0.01 | [10] 0 | [11] 0.015 | [12] -0.042 | [13] -0.019 | [14] -0.013 | [15] -0.004 | [16] 0.002

HDAC5 isoform 3 (UniProt Q9UQL6)
inactive: erlotinib 0.042 | [1] 0.008 | [2] 0.044 | [3] 0.011 | [4] -0.04 | [5] 0.061 | [6] -0.097 | [7] -0.011 | [8] 0.036 | IRAK-1-4 Inhibitor I 0.011 | ibrutinib 0.006 | [9] 0.022 | ralimetinib -0.069 | [10] -0.057 | [11] 0.02 | [12] 0.098 | [13] 0.001 | [14] 0.025 | [15] -0.029 | [16] 0.091

HBS1L (UniProt Q9Y450)
inactive: erlotinib 0.037 | [1] -0.027 | [2] -0.041 | [3] 0.029 | [4] -0.016 | [5] 0.02 | [6] 0.004 | [7] -0.022 | [8] -0.01 | IRAK-1-4 Inhibitor I -0.026 | ibrutinib 0.01 | [9] 0 | ralimetinib 0.008 | [10] 0.004 | [11] 0.062 | [12] -0.012 | [13] -0.002 | [14] 0.01 | [15] 0.014 | [16] 0.019

HDAC10 (UniProt Q969S8)
inactive: erlotinib 0.064 | [1] 0.126 | [2] 0.035 | [3] -0.155 | [4] -0.201 | [5] -0.111 | [6] -0.043 | [7] -0.204 | [8] 0.053 | IRAK-1-4 Inhibitor I 0.016 | ibrutinib -0.038 | [9] 0.019 | ralimetinib -0.106 | [10] 0.144 | [11] -0.207 | [12] -0.11 | [13] -0.088 | [14] 0.037 | [15] 0.022 | [16] 0.017

HAUS1 (UniProt Q96CS2)
inactive: erlotinib 0.008 | [1] -0.014 | [2] 0.006 | [3] -0.005 | [4] 0.081 | [5] 0 | [6] -0.004 | [7] 0.002 | [8] -0.02 | IRAK-1-4 Inhibitor I -0.005 | ibrutinib 0.158 | [9] -0.037 | ralimetinib 0.012 | [10] -0.015 | [11] 0.012 | [12] -0.034 | [13] -0.004 | [14] 0.003 | [15] 0.005 | [16] -0.026

H2AFY (UniProt O75367)
inactive: erlotinib 0.02 | [1] -0.026 | [2] 0.049 | [3] 0.069 | [4] 0.013 | [5] 0.069 | [6] 0.081 | [7] -0.051 | [8] -0.113 | IRAK-1-4 Inhibitor I 0.02 | ibrutinib 0.051 | [9] -0.056 | ralimetinib -0.025 | [10] -0.043 | [11] 0 | [12] -0.003 | [13] -0.148 | [14] -0.053 | [15] -0.033 | [16] -0.001

GUK1 isoform 2 (UniProt Q16774)
inactive: erlotinib -0.013 | [1] 0.003 | [2] 0.029 | [3] -0.007 | [4] 0.002 | [5] 0.012 | [6] -0.02 | [7] -0.03 | [8] 0.004 | IRAK-1-4 Inhibitor I -0.025 | ibrutinib -0.038 | [9] 0.009 | ralimetinib -0.008 | [10] -0.037 | [11] -0.006 | [12] -0.007 | [13] 0.036 | [14] 0.011 | [15] 0.066 | [16] -0.075

GRIPAP1 (UniProt Q4V328)
inactive: erlotinib -0.01 | [1] -0.013 | [2] 0.015 | [3] -0.005 | [4] -0.014 | [5] -0.004 | [6] 0.005 | [7] -0.021 | [8] 0.007 | IRAK-1-4 Inhibitor I -0.017 | ibrutinib -0.001 | [9] 0.003 | ralimetinib 0.017 | [10] 0.003 | [11] -0.007 | [12] 0.011 | [13] -0.024 | [14] -0.013 | [15] -0.013 | [16] -0.014

GRPEL1 (UniProt Q9HAV7)
inactive: erlotinib 0 | [1] -0.022 | [2] 0.024 | [3] -0.015 | [4] 0.018 | [5] 0.003 | [6] 0.011 | [7] -0.004 | [8] 0.019 | IRAK-1-4 Inhibitor I -0.004 | ibrutinib 0.049 | [9] -0.006 | ralimetinib -0.016 | [10] -0.011 | [11] -0.004 | [12] -0.018 | [13] -0.005 | [14] -0.01 | [15] -0.015 | [16] -0.004

GTPBP3 isoform 2 (UniProt Q969Y2)
inactive: erlotinib 0.06 | [1] -0.061 | [2] -0.015 | [3] -0.081 | [4] -0.066 | [5] 0.05 | [6] -0.101 | [7] 0.123 | [8] -0.127 | IRAK-1-4 Inhibitor I 0.021 | ibrutinib -0.192 | [9] 0.063 | ralimetinib -0.035 | [10] -0.051 | [11] 0.014 | [12] -0.099 | [13] -0.052 | [14] -0.035 | [15] 0.044 | [16] 0.049

GTF3C5 isoform 3 (UniProt Q9Y5Q8)
inactive: erlotinib -0.002 | [1] -0.042 | [2] -0.01 | [3] 0.007 | [4] -0.024 | [5] -0.019 | [6] -0.03 | [7] 0.072 | [8] 0.019 | IRAK-1-4 Inhibitor I -0.015 | ibrutinib 0.029 | [9] 0.034 | ralimetinib 0.009 | [10] 0.005 | [11] -0.016 | [12] 0.025 | [13] -0.007 | [14] 0.015 | [15] 0.003 | [16] 0.008

GRAP2 (UniProt O75791)
inactive: erlotinib 0.044 | [1] 0.038 | [2] 0.052 | [3] 0.024 | [4] 0.018 | [5] -0.004 | [6] -0.014 | [7] -0.004 | [8] 0 | IRAK-1-4 Inhibitor I -0.008 | ibrutinib 0.017 | [9] 0.016 | ralimetinib 0.024 | [10] -0.017 | [11] 0.008 | [12] -0.011 | [13] 0.003 | [14] -0.012 | [15] 0.03 | [16] 0.018

GRK6 isoform 2 (UniProt P43250)
inactive: erlotinib -0.014 | [1] -0.126 | [2] 0.015 | [3] -0.009 | [4] -0.046 | [5] -0.063 | [6] 0.284 | [7] -0.161 | [8] 0.108 | IRAK-1-4 Inhibitor I 0.053 | ibrutinib 0.083 | [9] 0.04 | ralimetinib -0.073 | [10] -0.068 | [11] -0.036 | [12] 0.021 | [13] -0.092 | [14] 0.048 | [15] -0.049 | [16] -0.005

Retrieved one by one from the entries so far (2):
GRAP2 (UniProt O75791)
inactive: erlotinib 0.044 | [1] 0.038 | [2] 0.052 | [3] 0.024 | [4] 0.018 | [5] -0.004 | [6] -0.014 | [7] -0.004 | [8] 0 | IRAK-1-4 Inhibitor I -0.008 | ibrutinib 0.017 | [9] 0.016 | ralimetinib 0.024 | [10] -0.017 | [11] 0.008 | [12] -0.011 | [13] 0.003 | [14] -0.012 | [15] 0.03 | [16] 0.018

HBS1L (UniProt Q9Y450)
inactive: erlotinib 0.037 | [1] -0.027 | [2] -0.041 | [3] 0.029 | [4] -0.016 | [5] 0.02 | [6] 0.004 | [7] -0.022 | [8] -0.01 | IRAK-1-4 Inhibitor I -0.026 | ibrutinib 0.01 | [9] 0 | ralimetinib 0.008 | [10] 0.004 | [11] 0.062 | [12] -0.012 | [13] -0.002 | [14] 0.01 | [15] 0.014 | [16] 0.019

Continuation:

HDAC6 (UniProt Q9UBN7)
inactive: erlotinib -0.025 | [1] -0.002 | [2] -0.025 | [3] -0.006 | [4] -0.014 | [5] -0.042 | [6] -0.034 | [7] -0.001 | [8] -0.023 | IRAK-1-4 Inhibitor I 0.008 | ibrutinib -0.051 | [9] 0.003 | ralimetinib -0.024 | [10] -0.041 | [11] -0.014 | [12] -0.036 | [13] -0.002 | [14] 0.008 | [15] -0.01 | [16] 0.01

Reference: the supplement of paper PMC10849652
